# Measurements from PubChem BioAssay (EPA / NIEHS).
# By UniProt entry, the sequences of proteins in these tests, tags left out. Where a name states a change or a piece, a line headed by the entry shows the natural chain unless it says otherwise.
# UniProt P22680: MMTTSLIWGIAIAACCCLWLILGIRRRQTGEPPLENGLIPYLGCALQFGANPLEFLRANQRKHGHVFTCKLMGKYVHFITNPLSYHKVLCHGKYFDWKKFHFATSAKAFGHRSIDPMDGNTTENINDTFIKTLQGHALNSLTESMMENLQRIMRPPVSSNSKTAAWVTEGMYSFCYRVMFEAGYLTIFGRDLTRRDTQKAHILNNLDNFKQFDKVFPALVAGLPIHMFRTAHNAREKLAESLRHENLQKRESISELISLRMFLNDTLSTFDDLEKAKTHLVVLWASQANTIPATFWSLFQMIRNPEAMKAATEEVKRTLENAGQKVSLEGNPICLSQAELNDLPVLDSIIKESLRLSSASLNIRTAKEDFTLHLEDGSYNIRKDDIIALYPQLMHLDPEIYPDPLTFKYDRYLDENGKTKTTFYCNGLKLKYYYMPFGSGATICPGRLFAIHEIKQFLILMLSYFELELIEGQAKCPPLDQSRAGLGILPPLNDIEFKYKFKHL
# UniProt Q16665, whole entry, looked up: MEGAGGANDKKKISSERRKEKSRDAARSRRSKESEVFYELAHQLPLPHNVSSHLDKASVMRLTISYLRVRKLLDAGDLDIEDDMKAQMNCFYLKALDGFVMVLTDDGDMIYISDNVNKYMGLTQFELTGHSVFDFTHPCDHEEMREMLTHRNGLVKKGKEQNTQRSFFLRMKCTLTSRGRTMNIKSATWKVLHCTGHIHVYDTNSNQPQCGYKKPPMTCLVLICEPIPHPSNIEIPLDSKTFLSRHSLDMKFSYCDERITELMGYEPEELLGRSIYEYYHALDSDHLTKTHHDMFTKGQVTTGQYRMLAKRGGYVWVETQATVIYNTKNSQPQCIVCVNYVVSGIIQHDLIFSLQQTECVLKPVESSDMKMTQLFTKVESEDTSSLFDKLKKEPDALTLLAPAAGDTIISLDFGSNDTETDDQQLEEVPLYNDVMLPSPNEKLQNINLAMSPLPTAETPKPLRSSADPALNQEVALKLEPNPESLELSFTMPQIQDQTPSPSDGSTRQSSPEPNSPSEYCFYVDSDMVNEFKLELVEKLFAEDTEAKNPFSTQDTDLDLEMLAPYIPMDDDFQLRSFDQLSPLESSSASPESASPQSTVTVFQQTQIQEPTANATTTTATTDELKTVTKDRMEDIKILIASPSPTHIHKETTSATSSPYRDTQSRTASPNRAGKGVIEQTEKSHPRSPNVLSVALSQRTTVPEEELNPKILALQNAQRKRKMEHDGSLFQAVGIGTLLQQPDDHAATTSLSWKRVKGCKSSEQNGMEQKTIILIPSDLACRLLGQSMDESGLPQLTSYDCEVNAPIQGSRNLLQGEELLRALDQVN
# UniProt P40763, whole entry, looked up: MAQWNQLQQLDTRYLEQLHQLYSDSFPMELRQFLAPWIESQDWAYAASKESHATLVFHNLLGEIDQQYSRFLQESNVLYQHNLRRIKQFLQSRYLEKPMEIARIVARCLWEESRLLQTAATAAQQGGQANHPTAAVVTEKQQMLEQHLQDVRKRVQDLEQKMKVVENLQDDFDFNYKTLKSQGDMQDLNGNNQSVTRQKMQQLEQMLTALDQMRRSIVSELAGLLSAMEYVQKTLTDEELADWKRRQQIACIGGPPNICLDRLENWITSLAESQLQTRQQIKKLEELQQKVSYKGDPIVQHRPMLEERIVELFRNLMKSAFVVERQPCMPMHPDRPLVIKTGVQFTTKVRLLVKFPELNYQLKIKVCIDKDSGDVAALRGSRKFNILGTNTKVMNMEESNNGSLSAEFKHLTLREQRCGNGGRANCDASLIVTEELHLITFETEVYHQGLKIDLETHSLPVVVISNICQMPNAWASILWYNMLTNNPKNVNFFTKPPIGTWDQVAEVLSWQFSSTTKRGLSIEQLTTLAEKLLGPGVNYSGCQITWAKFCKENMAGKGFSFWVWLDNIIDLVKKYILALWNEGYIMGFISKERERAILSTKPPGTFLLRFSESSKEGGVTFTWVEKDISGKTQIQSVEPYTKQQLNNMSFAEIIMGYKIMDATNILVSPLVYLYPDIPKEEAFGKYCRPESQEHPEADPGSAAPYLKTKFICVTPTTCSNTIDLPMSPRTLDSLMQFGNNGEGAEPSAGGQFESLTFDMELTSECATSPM
# For part of these data: This list holds what a sample rich in hits left over. The entries are a selection whose mix differs from that of the whole data set. Calls of active or inactive are those of the source. The calls were made as follows: active = hit-call score of the fitted dose curve at least 0.9, where 1 is the maximum; inactive = score below 0.9.
# Columns and labels:
# Settings in all cases: actives raise or lower the signal; mRNA level, 48 h
# [1] = read-out: Cytochrome P450 7A1 (Homo sapiens) (UniProt P22680); test: LTEA_HepaRG_CYP7A1: Life Technologies and Expression Analysis (LTEA) Assay for Cytochrome P450 7A1 (CYP7A1) using HepaRG (AID 2283496)
# Method in brief: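 Using 0.5% DMSO as vehicle and baseline, chemicals were tested in duplicate over an 8-point range from 100 uM on HepaRG cells for 48 h; qRT-PCR signals were normalised to ACTB, GAPDH and POLR2A.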
# [2] = read-out: Hypoxia-inducible factor 1-alpha (Homo sapiens) (UniProt Q16665); test: LTEA_HepaRG_HIF1A: Life Technologies and Expression Analysis (LTEA) Assay for Hypoxia-inducible factor 1 (HIF1A) Trancription factor using HepaRG (AID 2283503);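 also: HIF1A transcript by TaqMan qRT-PCR normalized to ACTB GAPDH and POLR2A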
# Method in brief: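 Gain- or loss-of-signal HIF1A mRNA changes are fitted against a DMSO baseline. HepaRG cultures receive eight concentrations, highest 100 uM, for 48 h in serum-free induction medium with 0.5% DMSO.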
# [3] = read-out: Signal transducer and activator of transcription 3 (Homo sapiens) (UniProt P40763); test: LTEA_HepaRG_STAT3: Life Technologies and Expression Analysis (LTEA) Assay for Signal transducer and activator of transcription (STAT3) using HepaRG (AID 2283529)
# Method in brief: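 HepaRG, 48 h exposure, 8-pt half-log series (top 100 uM), 0.5% DMSO vehicle, duplicates. Readout: STAT3 transcript by Fluidigm qRT-PCR, housekeeping-normalized; bidirectional fit vs DMSO baseline.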
# [4] = read-out: UDP glucuronosyltransferase (UGT1A1), UGT1A1 (gene 54658); test: LTEA_HepaRG_UGT1A1: Life Technologies and Expression Analysis (LTEA) Assay for UDP glucuronosyltransferase (UGT1A1) using HepaRG (AID 2283538)
# Method in brief: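 HepaRG, 48 h chemical exposure (top 100 uM, half-log 8-pt, 0.5% DMSO vehicle), duplicate wells; qRT-PCR (TaqMan, Fluidigm array) for UGT1A1 mRNA, housekeeping-normalized; bidirectional curve fit vs DMSO baseline.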
# [5] = read-out: Cytochrome P450 (CYP24A1), CYP24A1 (gene 1591); test: LTEA_HepaRG_CYP24A1: Life Technologies and Expression Analysis (LTEA) Assay for Cytochrome P450 (CYP24A1) using HepaRG (AID 2283478)
# Method in brief: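 Gene expression of CYP24A1 by TaqMan qRT-PCR in HepaRG after 48 h treatment, highest concentration 100 uM; activity fitted in both directions relative to DMSO vehicle.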
# [6] = read-out: Tumor necrosis factor receptor 1 (TNFRSF1A), TNFRSF1A (gene 7132); test: LTEA_HepaRG_TNFRSF1A: Life Technologies and Expression Analysis (LTEA) Assay for Tumor necrosis factor receptor 1 (TNFRSF1A) using HepaRG (AID 2283535)
# Method in brief: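 Assay uses 48 h chemical treatment of differentiated HepaRG monolayers, tested in duplicate at eight concentrations from 100 uM downward in 0.5% DMSO. mRNA is normalized to ACTB, GAPDH and POLR2A, with induction or suppression fitted relative to vehicle.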
# [7] = read-out: Fatty Acid-Binding Protein 1 (FABP1), FABP1 (gene 2168); test: LTEA_HepaRG_FABP1: Life Technologies and Expression Analysis (LTEA) Assay for Fatty Acid-Binding Protein 1 (FABP1) using HepaRG (AID 2283494)
# Method in brief: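 qRT-PCR readout of FABP1 transcript (normalized to three housekeeping genes) after 48 h chemical exposure of HepaRG cells; eight concentrations, half-log steps, max 100 uM, 0.5% DMSO vehicle; gain or loss fitted relative to DMSO baseline.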
# [8] = read-out: Transforming Growth Factor (TGFB1), TGFB1 (gene 7040); test: LTEA_HepaRG_TGFB1: Life Technologies and Expression Analysis (LTEA) Assay for Transforming Growth Factor (TGFB1) Transporter using HepaRG (AID 2283533)
# Method in brief: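 Eight-point concentration-response (max 100 uM, half-log) in HepaRG under serum-free induction conditions, 48 h. TGFB1 mRNA by qRT-PCR, housekeeping-normalized.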
# [9] = read-out: 3-Hydroxy-3-Methylglutaryl-CoA Synthase 2 (HMGCS2), HMGCS2 (gene 3158); test: LTEA_HepaRG_HMGCS2: Life Technologies and Expression Analysis (LTEA) Assay for 3-Hydroxy-3-Methylglutaryl-CoA Synthase 2 (HMGCS2) using HepaRG (AID 2283504)
# Method in brief: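 This steatosis marker was read as HMGCS2 mRNA change in HepaRG cells treated 48 h with up to 100 uM chemical. Normalisation used housekeeping genes; activity in either direction was fitted relative to 0.5% DMSO vehicle.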
# [10] = read-out: solute carrier (SLC22A1), SLC22A1 (gene 6580); test: LTEA_HepaRG_SLC22A1: Life Technologies and Expression Analysis (LTEA) Assay for solute carrier (SLC22A1) using HepaRG (AID 2283524);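 as to AC50: differentiated human HepaRG liver cells in serum-free induction medium; TaqMan qRT-PCR normalized to ACTB GAPDH and POLR2A housekeeping genes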
# Method in brief: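 qRT-PCR readout (TaqMan, Fluidigm arrays) of SLC22A1 transcript, normalized to three housekeeping genes; bidirectional curve fit relative to 0.5% DMSO vehicle. Differentiated human HepaRG cells, 48 h chemical exposure, top concentration 100 uM, half-log steps, eight points.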
# [11] = read-out: growth arrest and DNA damage 45 (GADD45G), GADD45G (gene 10912); test: LTEA_HepaRG_GADD45G: Life Technologies and Expression Analysis (LTEA) Assay for growth arrest and DNA damage 45 (GADD45G) using HepaRG (AID 2283499)
# Method in brief: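 Concentration-response in HepaRG: 48 h dosing, 0.5% DMSO, highest level 100 uM. GADD45G expression by qRT-PCR, normalised to endogenous controls; bidirectional fit to DMSO.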
# [12] = read-out: matrix metalloproteinase-3 (MMP3), MMP3 (gene 4314); test: LTEA_HepaRG_MMP3: Life Technologies and Expression Analysis (LTEA) Assay for matrix metalloproteinase-3 (MMP3) using HepaRG (AID 2283519)
# Method in brief: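 qRT-PCR read-out of MMP3 mRNA (normalised to three housekeeping genes) in HepaRG liver cells after 48 h chemical exposure; 8-point half-log series, top 100 uM, 0.5% DMSO vehicle. Bidirectional curve fitting against DMSO baseline.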
# CYP4A11 (gene 1579) = test: LTEA_HepaRG_CYP4A11: Life Technologies and Expression Analysis (LTEA) Assay for CYP4A11 using HepaRG (AID 2283486)
# Method in brief: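 Human hepatic HepaRG cultures receive duplicate 48 h exposures across a concentration-response series topping at 100 uM. Expression changes in CYP4A11 are measured by qRT-PCR relative to DMSO controls.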
# [13] = read-out: Pro-epidermal growth factor (Homo sapiens) (UniProt P01133); test: LTEA_HepaRG_EGF: Life Technologies and Expression Analysis (LTEA) Assay for Epidermal growth factor (EGF) using HepaRG (AID 2283489)
# Method in brief: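 Concentration-response mRNA assay: HepaRG cells dosed 48 h (max 100 uM, 0.5% DMSO), EGF measured by qRT-PCR and normalized to ACTB/GAPDH/POLR2A.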
smiles,measurement,setting,value
COC(=O)c1ccc(I)cc1S(=O)(=O)NC(=O)Nc1nc(C)nc(OC)n1,AC50,[1],active: 9.92 µM
same,outcome,[2],inactive
same,AC50,[3],active: 9.92 µM
same,outcome,[4],inactive
C1=CCCC=CCCC=CCC1,outcome,[5],inactive
same,outcome,[6],inactive
O=C(O)c1cccc(C(=O)O)c1,outcome,[7],inactive
same,outcome,[8],inactive
CCCN(C1CCN(C(=O)C2CCNCC2)CC1)[C@@H]1CCc2ccc(OC)cc2C1,AC50,[9],active: 74.4 µM
O=C1c2c(O)cccc2Cc2cccc(O)c21,outcome,[10],inactive
same,outcome,[8],inactive
COc1ccc(C(=O)Nc2nc3ccccc3c(NCc3ccccc3)c2C#N)cc1,AC50,[10],active: 15.5 µM
Cc1c(-c2cccnc2)c2ccccc2n1CCCCC(=O)O,outcome,[10],inactive
C[C@@H](Oc1ccc(CNC(=O)c2cccnc2Oc2ccc3c(c2)OCO3)c(F)c1)C(=O)O,outcome,[11],inactive
same,outcome,[12],inactive
NC(=O)N1C(=O)C(C(=O)c2cc(Cl)cs2)c2cc(F)c(Cl)cc21 (stereo not drawn),AC50,CYP4A11 (gene 1579),active: 19.8 µM
CC(C)(C)c1cccc(C(C)(C)C)c1O,outcome,CYP4A11 (gene 1579),inactive
same,outcome,[13],inactive
